Assay results published in PubChem BioAssay AID493014 (National Center for Advancing Translational Sciences (NCATS), 2011).
Screen size: about 340,000 compounds; about 170 (0.05%) were called active. Inconclusive results, whose numbers are uncertain, are shown with a selection of clear calls. Calls come from the whole dose curve; as a rule, active = well fitted inhibition curve with a large enough effect in the signal ratio, with a control signal flat (not every such curve was filed as active); inconclusive = small, poorly fitted or top-dose-only effect, or effect the other way, or a change in a side signal; inactive = flat fitted curve, though single readings scatter; the % refers to the signal ratio. Where the call is inconclusive, the potency comes from a doubtful curve fit.

Assay: qHTS Assay to Find Inhibitors of Chronic Active B-Cell Receptor Signaling;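 for activity change, negative = inhibition: plate controls were basal doxycycline-induced cells for no effect and cells given 10 µM MG132 for full effect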
Conditions: ABC-DLBCL IkBa-CBG/CBR reporter, luminescence ratio (green luciferase fused to IkBa over red control in TMD8 lymphoma cells), 4 h; activity change, negative = inhibition: at 46.1 µM (top of the series)
Outline: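 Compounds up to 46 uM were incubated four hours with TMD8 cells whose green CBG68 luciferase is fused to IkappaBalpha; red CBR luminescence normalised the signal, and concentration-effect curves were fitted to fusion, red and ratio data.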
Potency is the fitted concentration of half-maximal effect.

| Compound | Potency | activity change, negative = inhibition |
| --- | --- | --- |
| Cc1ccc(-n2nc3c(N4CCC(C(=O)N5CCN(C)CC5)CC4)nnc(C)c3c2C)cc1 | inconclusive: 15.8 µM [falling, single point] | – |
| O=C(O)c1ccc(-n2c(-c3cc(C4CC4)[nH]n3)n[nH]c2=S)cc1 | – | inactive: -17.1% |
| Cc1ccc(NC(=O)c2ccc(NCCCN3CCOCC3)c([N+](=O)[O-])c2)cc1Cl | – | inconclusive: -21.4% |
| O=C1N/C(=C\c2ccccc2)c2ccccc21 | inconclusive: 20.6 µM [falling, partial curve] | – |
| COc1ccc(-c2nc(NC(=O)c3cc(C(C)(C)C)nn3C)sc2C)cc1 | – | inconclusive: -0.998% |
| Cc1ccccc1NS(=O)(=O)c1ccc(C(=O)N2CCCCCCC2)cc1 | – | inconclusive: 14.4% |
| Cc1cc(=O)c2ccc3ccccc3c2[nH]1 | – | inconclusive: 24.9% |
| COCC1CCN(C(=O)c2cc(COc3cccc4cnccc34)on2)CC1 | – | inconclusive: -28.1% |
| CCN(C(=O)[C@@H]1CCCN1C(=O)c1cccs1)c1nc2cc(Cl)ccc2s1 | – | inactive: 0.469% |
| COc1cc(C)ccc1OCC(=O)Nc1ccc2c(c1)OCO2 | – | inconclusive: -0.877% |
| COc1cc(-c2[nH]nc3c2C(c2ccco2)C(C#N)=C(N)O3)cc(OC)c1OC (stereo not given) | inconclusive: 32.6 µM [falling, partial curve, poor fit] | – |
| COc1cc(/C=C2\NC(=S)N(C)C2=O)ccc1O | – | inconclusive: -25.8% |
| COC(=O)C(Cc1ccc(O)cc1)NC(=O)C1CCN(S(=O)(=O)c2ccc(C)cc2)CC1 (stereo not given) | – | inconclusive: -11.3% |
| CC(=Nc1ccc(C)cc1C)c1sc2ccccc2c1O | – | inconclusive: 1.29% |
| O=C(CCS(=O)(=O)c1ccccc1)N(CCCN1CCOCC1)c1nc2c(F)cccc2s1 | inconclusive: 29.1 µM [falling, single point] | – |
| COC(=O)CCC/C=C1/SCC(NC(=O)c2ccccc2)/C1=N/O (stereo not given) | inconclusive: 35.5 µM [falling, single point] | – |
| COCCNC(=O)c1snc2ccc(Cl)cc12 | – | inconclusive: 9.38% |
| COc1ccc(OC)c(NC(=O)COc2ccc3c(c2)CCC3)c1 | – | inconclusive: -10.3% |
| CC1CCCCC1NC(=O)COc1cccnc1[N+](=O)[O-] (stereo not given) | – | inconclusive: 2.1% |
| COc1ccc(NC(=O)c2ccc3ncsc3c2)cc1 | inconclusive: 17.8 µM [falling, single point] | – |
| O=C(c1ccccc1)N1N=C(c2ccc(F)cc2)CC1(O)C(F)(F)F (stereo not given) | – | inactive: -10% |
| CCCCn1c(N)c(N(C)C(=O)c2ccccc2Oc2ccccc2)c(=O)[nH]c1=O | – | inactive: -10.5% |
| COc1ccccc1NC(=O)CN(Cc1ccco1)C(=O)c1cncc(Br)c1 | – | inconclusive: -66.8% |
| COc1ccc(C(=O)C(=O)c2ccc(OCCO)cc2)cc1 | – | inactive: 0.434% |
| CC(=O)Nc1ccccc1-c1nc2ccccc2nc1OCC(=O)c1ccc(Br)cc1 | inconclusive: 35.5 µM [falling, single point] | – |
| CCC(c1nnnn1Cc1ccc(OC)cc1)N(CCCO)Cc1cc2cc3c(cc2[nH]c1=O)OCO3 (stereo not given) | inconclusive: 1.46 µM [falling, full curve] | – |
| CCCn1c(SCC(=O)Nc2nc(-c3ccc(OC)cc3)cs2)nc2c1c(=O)n(C)c(=O)n2C | – | inactive: 4.73% |

For reference, some entries already given:

| Compound | Potency | activity change, negative = inhibition |
| --- | --- | --- |
| CC1CCCCC1NC(=O)COc1cccnc1[N+](=O)[O-] (stereo not given) | – | inconclusive: 2.1% |
| COc1ccc(NC(=O)c2ccc3ncsc3c2)cc1 | inconclusive: 17.8 µM [falling, single point] | – |
| O=C(c1ccccc1)N1N=C(c2ccc(F)cc2)CC1(O)C(F)(F)F (stereo not given) | – | inactive: -10% |
| CCCCn1c(N)c(N(C)C(=O)c2ccccc2Oc2ccccc2)c(=O)[nH]c1=O | – | inactive: -10.5% |

(continued)

| Compound | Potency | activity change, negative = inhibition |
| --- | --- | --- |
| O=C(COC(=O)C1(c2ccc(F)cc2)CCCC1)Nc1ncc(C(F)(F)F)cc1Cl | inconclusive: 10.3 µM [rising, partial curve, poor fit] | – |
| O=C(Nc1ccc(Cl)cc1)Nc1nnc(SCc2ccc(Cl)cc2)s1 | inconclusive: 2.59 µM [rising, partial curve] | – |
| O=C(COC(=O)c1ccccc1C(=O)c1ccc(Cl)cc1)NCCc1ccccc1 | – | inconclusive: -19.8% |
| Cc1cccc(C)c1NC(=O)CSc1nnc(-c2ccco2)c(-c2ccco2)n1 | inconclusive: 12.6 µM [rising, partial curve, poor fit] | – |
| O=C(CCN1CCOCC1)N/N=C/c1cc(Br)cc(Br)c1O | – | inactive: 11.5% |
| COc1ccc(NC(=O)CSc2nc3ccccc3c(=O)n2CCC(=O)NC2CCCCC2)c(OC)c1 | – | inactive: 6.59% |
| COC(=O)c1sccc1NC(=O)Nc1ccc(F)cc1F | – | inactive: -0.948% |
| COc1ccc(N2CC(C(=O)Nc3nc4ccccc4s3)CC2=O)cc1 (stereo not given) | – | inconclusive: 0.379% |
| C=CCN(CC=C)c1nc2ccccc2nc1C(C#N)C(=O)OC(C)C (stereo not given) | inconclusive: 23.1 µM [activator, single point] | – |
| CCOC(=O)c1c(NC(=O)c2nc3n(n2)C(C(F)F)CC(C)N3)sc2c1CCCC2 (stereo not given) | – | inconclusive: 3.31% |
| C=C1CCC[C@]2(C)C[C@H]3OC(=O)C(CN4CC(C)OC(C)C4)[C@H]3C[C@@H]12 (stereo not given in full) | – | inconclusive: -0.706% |
| CCCc1cc(=O)[nH]c(N2CCN(Cc3ccc4c(c3)OCO4)CC2)n1 | – | inconclusive: -3.79% |
| CC(C)c1ccccc1-n1c(SCC(=O)N2CCN(c3ccccc3)CC2)nnc1-c1cccnc1 | – | inactive: 9.45% |
| CCCCn1c(N2CCCC2)nc2c1c(=O)[nH]c(=O)n2C | – | inconclusive: 0.289% |
| Cc1ccccc1C(=O)Nc1cccc(NC(=O)c2cccnc2)c1 | – | inconclusive: -15.1% |
| COc1ccc2[nH]c3nc(SCC(=O)Nc4cccc(NC(C)=O)c4)nnc3c2c1 | – | inactive: -3.52% |
| CCN(CC)CCCNC(=O)CCC(=O)Nc1ccc2nc(N3CCCCC3)cc(C)c2c1 | – | inconclusive: -25.5% |
| Cc1ccccc1-n1ccnc1SCC(=O)O | – | inactive: -23.7% |
| COC(=O)C(C)N1C(=O)S/C(=C\c2cc(C)n(-c3ccccn3)c2C)C1=O (stereo not given) | – | inconclusive: 1.91% |
| CC(NC(=O)c1ccco1)c1nc(-c2ccc(Cl)cc2)no1 (stereo not given) | – | inconclusive: 13% |
| Cc1cc(C)cc(NC(=O)C(=O)NCC2CCCO2)c1 (stereo not given) | inconclusive: 25.1 µM [falling, partial curve] | – |
| CN(c1ccc(C(=O)N2CCN(Cc3ccccc3)CC2)cc1)S(=O)(=O)c1ccccc1 | – | inconclusive: 12.4% |
| O=C1OC[C@H]2CCCN2C(=O)[C@@H](CC(=O)N(CCO)Cc2ccccc2)C/C=C\CC[C@@H]1Cc1ccc(F)cc1 | – | inactive: 2.93% |
| COc1ccc(CCNC(=S)NC(=O)c2ccccc2)cc1C | – | inactive: 0.296% |
| COc1cc(C(=S)N2CCOCC2)cc(OC)c1OC(=O)c1ccccc1[N+](=O)[O-] | – | inconclusive: -17.6% |
| Cc1nnc(NC(=O)CSc2ccc(-c3ccccn3)nn2)s1 | – | inconclusive: -1.95% |
| Cc1cc(NC(=O)c2cc(-c3ccc4c(c3)OCO4)on2)n(-c2ccccc2)n1 | – | inconclusive: -11.1% |

Structures above containing a CF3 group (two):

| Compound | Potency | activity change, negative = inhibition |
| --- | --- | --- |
| O=C(c1ccccc1)N1N=C(c2ccc(F)cc2)CC1(O)C(F)(F)F (stereo not given) | – | inactive: -10% |
| O=C(COC(=O)C1(c2ccc(F)cc2)CCCC1)Nc1ncc(C(F)(F)F)cc1Cl | inconclusive: 10.3 µM [rising, partial curve, poor fit] | – |

Next results:

| Compound | Potency | activity change, negative = inhibition |
| --- | --- | --- |
| CNc1ccc(Oc2c(F)c(F)nc(F)c2F)cc1 | – | inconclusive: 3.22% |
| N#C/C(=N\Nc1ccc(S(=O)(=O)N2CCCCCC2)cc1)C(N)=S | – | inconclusive: 12.8% |
| CCc1ccc(C(c2ccc(CC)cc2)C(Cl)Cl)cc1 | – | inactive: 20.5% |
| O=C(c1ccc(F)cc1)N(Cc1ccccc1)C1CCS(=O)(=O)C1 (stereo not given) | – | inconclusive: 6.38% |
| O=C(Nc1cccc2cccnc12)c1cccc(Cl)c1 | inconclusive: 6.31 µM [falling, full curve] | – |
| CCCCc1ccc(NC(=S)NCc2cccc(OC)c2)cc1 | inconclusive: 35.5 µM [falling, single point] | – |
| O=C(N1CCCCC1)N1CCN(S(=O)(=O)c2ccc(Cl)cc2)CC1 | inconclusive: 14.1 µM [falling, partial curve] | – |
| Cc1nn(C)cc1S(=O)(=O)N1CCN(c2ccccc2)CC1 | – | inactive: 5.13% |
| CC(=O)NC1=C(C#N)C(c2ccccc2)c2c(ccc3ccccc23)O1 (stereo not given) | inconclusive: 29.1 µM [falling, single point] | – |
| O=C(CSc1n[nH]c(-c2cc(Cl)ccc2Cl)n1)NCCN1C(=O)CSC1=O | – | inconclusive: -0.365% |
| CN(C)c1nc(N)nc(CSc2ncc(Cl)cc2Cl)n1 | – | inconclusive: 4.49% |
| COc1ccc(NC(=O)CCn2nc(C)cc2C)cc1 | – | inconclusive: 0.648% |
| COC(=O)c1ccc(/C=C/C(=O)c2ccc(OC)c(OC)c2)cc1 | inconclusive: 14.1 µM [rising, single point] | – |
| CCOc1cc(/C=C(/C#N)C(=O)Nc2ccc(O)cc2)cc(Br)c1O | inconclusive: 4.61 µM [cytotoxic, single point] | – |
| O=C(CNC(=O)c1ccccc1F)c1ccccc1 | inconclusive: 15.8 µM [falling, partial curve] | – |
| Cc1cc(-c2ccccc2)nc2oc(C(=O)NN)c(N)c12 | inconclusive: 35.5 µM [falling, single point] | – |
| CC(C)N1C(=S)SC(C)(C)C1n1oc(=O)n(-c2ccc(Cl)c(Cl)c2)c1=O (stereo not given) | inconclusive: 29.1 µM [falling, single point] | – |
| Cc1ccc2nc(SCC(=O)Nc3ccc(Cl)cc3)nc(=O)n2c1 | – | inactive: -4.39% |
| Cc1cccc(NC(=S)Nc2cccc(C)n2)n1 | – | inconclusive: 0.523% |
| O=C(N1CCOCCOc2ccccc2OCCOCC1)C(F)(F)F | – | inactive: 0.667% |
| CCS(=O)(=O)NCCc1csc(-c2cccnc2)n1 | – | inactive: 6.54% |
| O=C(O)CSC(C(=O)Nc1ccc(Br)cc1)c1ccc(Cl)cc1 (stereo not given) | – | inconclusive: 14.1% |
| Cc1cc(N2CCN(S(=O)(=O)c3ccc(C)c(C)c3)CC2)c2ccccc2n1 | inconclusive: 8.2 µM [falling, single point] | – |
| CC1CCN(C(=O)C(=O)c2cn(CC(=O)N3CCCCCC3)c3ccccc23)CC1 | – | inconclusive: -27.1% |
| C=CCC[C@@H](Cc1ccc(F)cc1)C(=O)OC[C@@H]1CCCN1C(=O)[C@@H](CC=C)CC(=O)N(CCO)Cc1ccccc1 | – | inconclusive: -0.941% |
| O=C1OCc2nc3cc4c(cc3c(-c3ccc(F)cc3)c21)OCO4 | – | inconclusive: 11.4% |
